# Test results taken from article PMC11877631, “Novel Nucleus-Oriented Quenched Activity-Based Probes Link Cathepsin Nuclear Localization with Mitosis” (ACS Sensors, 2025).
# System: NIH-3T3 cells
# Test: Live cell confocal imaging
# Format: cell-based, mouse
# Conditions: NIH-3T3, 2.5 μM, imaged for 6 h with 2 h intervals
# Procedure: NIH-3T3 or HeLa cells were seeded in an 8-well coverslip chamber (Lab-Tek) at a density of 100,000 cells per well and grown at 37 °C under 5% of CO2, 24 h later, cells were treated with 2.5 μM KRSs probes for 6 h. The medium was replaced with DMEM without phenol red, and Hoechst was added to a final concentration of 5 μg/mL. Live imaging of cells using a Zeiss LSM 710 Axio Observer.Z1 with a 63/24 Oil DIC M27 lens, in Cy3 and DAPI channels, was performed over 24 h; pictures were taken every 20–25 min. The Z-stack analysis was performed using 3–5 different depths focusing on the cell nucleus; each slice was 1–1.5 μm. Image processing was performed using NIS-Elements image acquisition software, quantifying the 63× images of several experiments and calculating the average fluorescence intensity. Statistics and standard deviation were calculated by using Microsoft Excel.
row,Substance,Cellular localization of probe signal
1,Ac-Cys-Phe-Phe-Lys-(TMR-X)-AOMK-QSY7 [KRS-D1(qAc)],more scattered in the cell
2,TAT-Cys-Phe-Phe-Lys-(TMR-X)-AOMK-QSY7 [KRS-B1(qTAT)],mostly localized to the peri-nuclear region
3,NLS-Cys-Phe-Phe-Lys-(TMR-X)-AOMK-QSY7 [KRS-E1(qNLS)],mostly localized to the peri-nuclear region
